Among the data in US7238786B2, “Monoclonal antibody cPAM4” (Immunomedics, Inc., priority 2002, dated 2007) are binding values, retold here.

By UniProt entry, the sequences of proteins in these tests, tags left out. Residues count along the entry.
UniProt P15941, residues 24-125: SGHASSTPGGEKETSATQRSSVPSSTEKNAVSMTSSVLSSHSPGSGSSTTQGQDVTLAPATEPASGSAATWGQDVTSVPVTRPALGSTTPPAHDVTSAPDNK

No constants are given. Whether binding was seen depends on the method and setting. Some entries that bind do so weakly or less than the wild type.

In assay [1] the target is PAM4 antigen (MUC1 antigen; pancreatic cancer mucin) (human) (UniProt P15941). The assay can be described thus: competitive binding assay, unlabeled antibody against 131I-mPAM4 tracer on the antigen.
The target is the same in assay [2]. Put plainly: immunohistochemical staining studies.

B1: chimeric PAM4 antibody (antibody, V domains shown)
VL: DIQLTQSPAIMSASPGEKVTMTCSASSSVSSSYLYWYQQKPGSSPKLWIYSTSNLASGVPARFSGSGSGTSYSLTISSMEAEDAASYFCHQWNRYPYTFGGGTKLEIKR
V domain: QVQLQESGPELVKPGASVKMSCKASGYTFPSYVLHWVKQKPGQGLEWIGYINPYNDGTQYNEKFKGKATLTSDKSSSTAYMELSRLTSEDSAVYYCARGFGGSYGFAYWGQGTLITVSA
Turning to B1, in assay [1], the binding entry was “binds”.

B2: murine PAM4 monoclonal antibody (antibody, V domains shown)
VL: DIVMTQSPAIMSASPGEKVTMTCSASSSVSSSYLYWYQQKPGSSPKLWIYSTSNLASGVPARFSGSGSGTSYSLTISSMEAEDAASYFCHQWNRYPYTFGGGTKLEIK
V domain: EVQLQESGPELVKPGASVKMSCKASGYTFPSYVLHWVKQKPGQGLEWIGYINPYNDGTQYNEKFKGKATLTSDKSSSTAYMELSRLTSEDSAVYYCARGFGGSYGFAYWGQGTLITVSA
With B2, the binding entry in assay [1] and in assay [2] was “binds” in each case.
